Measurements from PubChem BioAssay AID2685 (National Center for Advancing Translational Sciences (NCATS), 2010).
About 2,100 (0.66%) of roughly 320,000 compounds were called active. The shares of active, inactive and inconclusive entries below differ from those in the screen. Calls come from the whole dose curve; as a rule, active = well fitted inhibition curve with a large enough effect in the signal ratio, with a control signal flat (not every such curve was filed as active); inconclusive = small, poorly fitted or top-dose-only effect, or effect the other way, or a change in a side signal; inactive = flat fitted curve, though single readings scatter; the % refers to the signal ratio. Potencies of inconclusive entries are doubtful fits and often do not repeat.

Assay: qHTS Assay for Lipid Storage Modulators in Drosophila S3 Cells
Settings: BODIPY lipid droplet fluorescence, 18-24 h, cells fed with added oleic acid; lipid storage change, negative = inhibition: at 46.1 µM (top of the series) unless noted
How it was run: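 Drosophila S3 cells got compounds at several concentrations plus oleic acid (400 uM solution). Laser-scanning cytometry with 488 nm excitation read lipid droplets at 500-530 nm and cells at 575-640 nm. Percent activity was relative to 20 uM Triacsin C.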
% is set by controls: 0 for no effect and ±100 for the full control effect; potency is the fitted concentration of half-maximal effect.

| SMILES | Potency | lipid storage change, negative = inhibition |
| --- | --- | --- |
| Cc1ccc(S(=O)(=O)N2CCC(C(=O)OCC(=O)N(C)c3ccccc3)CC2)cc1C | inconclusive: 16.4 µM [activator, partial curve, poor fit] | – |
| O=C1/C(=C\c2ccncc2)CCc2ccccc21 | inconclusive: 32.6 µM [falling, single point] | – |
| O=C(CNC(=O)c1cccc(F)c1)OCCOc1cccc(Cl)c1 | – | inconclusive: 59% [at 0.0737 µM] |
| COC(=O)C(NC(=O)CCc1nnc2ccc(N3CCC(C)CC3)nn12)C(C)C (stereo not drawn) | inconclusive: 0.0041 µM [falling, full curve, poor fit] | – |
| CCCCS(=O)CC(O)COc1ccc(C(C)(C)C)cc1 (stereo not drawn) | inconclusive: 29.1 µM [activator, single point] | – |
| COc1cccc(CN2CC(C(=O)N3CCN(c4ccc(Cl)cc4)CC3)CCC2=O)c1 (stereo not drawn) | – | inconclusive: 59.6% |
| CCn1cc(CN2CCC(n3nccc3NC(=O)CCCc3ccccc3)CC2)cn1 | – | inconclusive: -23.1% |
| O=[N+]([O-])c1ccccc1/C=N/N1CCN(c2ccncc2S(=O)(=O)N2CCCCC2)CC1 | – | inconclusive: -2.54% |
| Cc1nn(CCOc2ccccc2)c(=O)n1-c1ccccc1F | – | inconclusive: 25% |
| COc1ccccc1NC(=O)C1=C(C)Nc2nnnn2C1c1cccc(C)c1 (stereo not drawn) | inconclusive: 0.146 µM [falling, single point] | – |
| CN(C)S(=O)(=O)c1cccn1-c1ncc(C(F)(F)F)cc1Cl | inconclusive: 16.4 µM [activator, partial curve] | – |
| CN1CCN(c2nc3c(c(=O)n(C)c(=O)n3C)n2Cc2ccc(F)cc2)CC1 | – | inconclusive: -38.1% |
| Cc1oc(=O)c(NC(=O)c2cccc(Cl)c2)cc1C(=O)c1ccccc1 | inconclusive: 29.1 µM [falling, single point] | – |
| CCOC(=O)Cn1nc(-c2ccc(F)cc2)oc1=O | – | inconclusive: -41.7% |
| O=c1ccc(Cc2ccc(Cl)cc2)n[nH]1 | – | inconclusive: 20.8% |
| N#CCCn1cc(/C=C2\NC(=S)N(c3ccccc3)C2=O)c(-c2ccc(F)cc2)n1 | inconclusive: 29.1 µM [cytotoxic, single point] | – |
| Cc1nc2sc(C(c3cccs3)N3CC(C)CC(C)C3)c(O)n2n1 (stereo not drawn) | inconclusive: 29.1 µM [falling, single point] | – |
| COc1ccc(CN(C)C(=O)CNC(=O)c2ccc3ccccc3c2)c(OC)c1 | inconclusive: 6.51 µM [activator, single point] | – |
| COc1ccc(-c2c(C#N)c(N)nc3c2CCc2ccccc2-3)cc1OC | – | inconclusive: 18.5% |
| COc1ccc(-c2nc3n(c(=O)c2C#N)CCS3)cc1OC | – | inconclusive: 28.3% |
| CC(=O)c1ccc(S(=O)(=O)Nc2ccc(-c3ccc4nncn4n3)cc2)cc1 | – | inconclusive |
| CCn1ccc(C(=O)Nc2ccc(Cl)cn2)n1 | – | inconclusive: 10.7% [at 9.22 µM] |
| CN1C(=O)NC(NC(=O)c2ccncc2)(C(F)(F)F)C1=O (stereo not drawn) | – | inconclusive: 51.2% |
| Fc1ccc(-c2ccc(/C=N/n3cnnc3)o2)cc1 | active: 10.3 µM | – |
| CCc1nn(C(C)C(=O)NCc2cccc(Cl)c2)c(=O)c2cc3occc3n12 (stereo not drawn) | – | inconclusive: 20.1% |
| COc1ccc(C(=O)Nc2ccc(O)cc2C(=O)O)cc1 | inconclusive: 8.91 µM [falling, partial curve, poor fit] | – |

| SMILES | Potency | lipid storage change, negative = inhibition |
| --- | --- | --- |
| CCOc1ccc(CNc2ccc(N3CCN(Cc4ccccc4)CC3)cc2)cc1 | active: 2.31 µM | – |
| Cc1sc2ncnc(N3CCC(C(=O)Nc4ccc(C#N)cc4)CC3)c2c1C | inconclusive: 2.59 µM [activator, partial curve] | – |
| CCn1c(SCC(N)=O)nc2c1c(=O)n(C)c(=O)n2C | – | inconclusive: 44% |
| CCS(=O)(=O)N1CCN(C(=O)c2cccc(OC)c2)CC1 | inconclusive: 0.517 µM [falling, full curve] | – |
| CCN(CC)C(=O)CSc1nc2cc3c(cc2c(=O)n1CCCCCC(=O)NCc1ccc(OC)cc1)OCO3 | inconclusive: 29.1 µM [falling, single point] | – |
| CC(=O)c1ccc(N2CCN(c3ccc(S(=O)(=O)N4CCN(C)CC4)cn3)CC2)cc1 | – | inconclusive: 26.7% |
| CC(C)CC(NC(=O)OC(C)(C)C)C(=O)O (stereo not drawn) | – | inconclusive: 43% |
| O=c1oc2ccccc2cc1-c1cn2cccnc2n1 | inconclusive: 14.6 µM [activator, partial curve] | – |
| CCOc1cc(C(=S)N2CCCCC2)ccc1OS(=O)(=O)c1ccc(Cl)cc1 | – | inconclusive: -29.8% |
| Cc1ccc2c(c1)COc1c3ccc(C(=O)N4CCOCC4)cc3nn1-2 | – | inconclusive: 8.84% |
| COc1ccc(OC)c(NC(=O)CSc2nnc(CNc3ccc(C)cc3C)o2)c1 | inconclusive: 0.146 µM [activator, full curve] | – |
| CC1=C(C(=O)Nc2cccc(F)c2)C(c2ccsc2)C2=C(CC(C)(C)CC2=O)N1 (stereo not drawn) | – | inconclusive: 1.44% |
| Cc1ccc2nc(-c3ccccc3N)[nH]c2c1 | – | inconclusive: -17.5% |
| O=c1oc2c(-c3cccc(F)c3)cc(O)cc2s1 | – | inconclusive: -11.7% |
| Cc1ccc(C)c(S(=O)(=O)N2CCN(c3ncccn3)CC2)c1 | – | inconclusive: 17.8% |
| O=C(NC1CCCCC1)C1CCN(C(=O)c2ccccc2Cl)CC1 | – | inactive: -5% |
| Cn1c(Cc2cccs2)nnc1SCC(=O)Nc1ccccc1 | – | inconclusive: 13% |
| CC1C(=O)CCC1(C(=O)O)c1ccccc1 (stereo not drawn) | – | inconclusive: -12.1% |
| COc1ccc(-c2nn(-c3ccccc3)cc2C(=O)NCC2CCCO2)cc1 (stereo not drawn) | – | inconclusive: -92.1% |
| CCCCn1c(N)c(N(CC)C(=O)c2ccncc2)c(=O)[nH]c1=O | inconclusive: 2.06 µM [falling, partial curve, poor fit] | – |
| COc1ccc(/C=C/C(=O)NC2CCCCC2C)cc1 (stereo not drawn) | – | inconclusive: 14.3% |
| CCOC(=O)c1c(C)nc2sc3c(=O)n(-c4ccc(C(C)=O)cc4)nnc3c2c1-c1ccc(OC)cc1 | – | inconclusive: 5.32% |
| C=CCn1cnc2c(sc3nc(C)cc(C)c32)c1=O | – | inconclusive: 10.3% |
| CCOC(=O)c1ccc(-n2c(CN(CC)CC)nc3ccc([N+](=O)[O-])cc3c2=O)cc1 | – | inconclusive: -38.1% |
| CCOc1ccc(NC(=O)CCN2C(=O)c3cccc([N+](=O)[O-])c3C2=O)cc1 | – | inconclusive: 35.9% |
| O=C(CN1C(=O)NC2(CCc3ccccc32)C1=O)NCC(F)(F)F (stereo not drawn) | – | inconclusive: -100% |

| SMILES | Potency | lipid storage change, negative = inhibition |
| --- | --- | --- |
| CSc1ccc(NC(=O)N2CC=C(n3c(=O)[nH]c4ccccc43)CC2)cc1 | – | inconclusive: 26.9% |
| CCNC(=O)NC1(C(=O)Nc2ccc3c(c2)CCC3)CCCCC1 | – | inconclusive: 7.37% |
| CCc1ccccc1NC(=O)c1ccc(NCCc2ccccc2)c([N+](=O)[O-])c1 | – | inconclusive: -24.7% |
| Nc1nc(-c2ccccc2)c(-c2ccc([N+](=O)[O-])cc2)s1 | – | inactive: 20.9% |
| CC(Sc1nnc(COc2ccccc2)n1-c1ccccc1)C(=O)O (stereo not drawn) | – | inconclusive: -7.24% |
| COc1cc(C)c2occ(/C(C)=N\O)c2c1 | – | inconclusive: 1.83% |
| O=C1C(=O)N(CCCN2CCOCC2)C(c2ccc(Cl)cc2)/C1=C(/O)c1ccc(F)cc1 (stereo not drawn) | inconclusive: 0.092 µM [activator, full curve, poor fit] | – |
| C=CCn1ccc(=NC=C(C#N)C#N)c2ccccc21 | – | inconclusive: 23.3% |
| CC(=C/c1ccccc1)/C=N/NC(=O)c1cnccn1 | – | inconclusive: 15.3% |
| O=C(Nc1cccc(Cl)c1)NC1CCCCC1 | – | inconclusive: -0.25% |
| Cc1c(NC(=O)c2cccc(NC(=O)COc3ccccc3C#N)c2)c(=O)n(-c2ccccc2)n1C | – | inconclusive |
| CCn1cc([N+](=O)[O-])c(C(=O)Nc2nc(-c3ccc(C)cc3)c(C)s2)n1 | active: 4.61 µM | – |
| O=C(N/N=C/c1cccc(Cl)c1)C1CCCC1 | – | inconclusive: 114% |
| CC1CC(C)CN(S(=O)(=O)c2ccc3c(c2)NC(=O)C(C)C(=O)N3)C1 (stereo not drawn) | – | inconclusive: 36.8% |
| O=C(C1=C(O)C(=O)N(CCN2CCOCC2)C1c1ccc(Br)cc1)c1cc2ccccc2o1 (stereo not drawn) | inconclusive: 29.1 µM [activator, partial curve, poor fit] | – |
| Cc1cccn2c(=O)c(C=NCCO)c(Nc3ccc(Cl)cc3)nc12 | inconclusive: 29.1 µM [activator, single point] | – |
| CC(=O)c1cccc(S(=O)(=O)Nc2cc(C(F)(F)F)ccc2N2CCOCC2)c1 | – | inconclusive: 11.8% |
| CN1CCN(NC(=S)NC2CCCCC2)CC1 | – | inconclusive: -9.37% |
| Cc1cc(C(=O)Nc2ccc(C)c(S(=O)(=O)N3CCOCC3)c2)c(C)o1 | – | inconclusive: 16.8% |
| CC(OC(=O)CCc1nc2ccccc2[nH]c1=O)C(=O)c1ccccc1 (stereo not drawn) | – | inconclusive: 43.2% |
| O=C(COC(=O)/C=C/c1ccco1)NC1CCCCC1 | inconclusive: 2.91 µM [falling, partial curve, poor fit] | – |
| CC(=O)N/C(=C\c1ccc(F)cc1)C(=O)OCc1ccccc1 | – | inconclusive: 35.2% |
| Cc1ccc(-c2nc3cc(N)ccc3o2)cc1Br | inconclusive: 7.31 µM [activator, partial curve, poor fit] | – |
| COc1ccc(N2CCN(c3cc(C)c4ccc(C)cc4n3)CC2)cc1 | – | inconclusive: 20.3% |
| O=C1c2ccccc2NC(c2cccc([N+](=O)[O-])c2)N1CCc1ccccc1 (stereo not drawn) | active: 5.8 µM | – |
| CCn1ncc(Br)c1C(=O)Nc1ncc(C)s1 | – | inconclusive: -10.8% |

Quoted at random: 3 compounds from above.

| SMILES | Potency | lipid storage change, negative = inhibition |
| --- | --- | --- |
| CCNC(=O)NC1(C(=O)Nc2ccc3c(c2)CCC3)CCCCC1 | – | inconclusive: 7.37% |
| CCn1cc([N+](=O)[O-])c(C(=O)Nc2nc(-c3ccc(C)cc3)c(C)s2)n1 | active: 4.61 µM | – |
| CCn1ncc(Br)c1C(=O)Nc1ncc(C)s1 | – | inconclusive: -10.8% |
